For 27 molecules, growth inhibition results are on record in PubChem BioAssay AID638 (SRMLSC, 2007).

Among all 1,300 compounds or so, about 65 (5%) were called active.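 How the source made its calls: active means growth inhibition reaching a set limit at one or more tested doses; inactive means the rest.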 This is one part of the list. Entries with a potency or affinity are not part of this list.

The nature of this assay: wild-type E. coli BW25113 antibacterial activity – OD615, dose response (AID 638). Particulars: at 100 µM (top of the series) unless noted. In a few lines: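 Assay system: E. coli BW25113 wild type. Doses: compound concentration series. Timing: 20 h compound exposure, 37 °C. Technique: OD615 absorbance. Medium: LB broth containing kanamycin at 50 µg/mL. Benchmarks: chloramphenicol at 30 µM final as inhibition control. Measure: IC50 from 4-parameter logistic, bounds fixed 0–100%.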
Take `Cc1cc(Nc2ccccc2)n(-c2nc3ccccc3[nH]2)n1`: the growth inhibition was inactive: 11.1%.

Regarding `C=C(C)COc1ccc(-c2n[nH]c(C)c2Oc2ccccc2OC)c(O)c1`, the growth inhibition is inactive: 0.02%.

For the molecule `CC(C)(C)c1ccc(OCC(=O)NCc2ccco2)c(Br)c1`, the growth inhibition is inactive: 2.43%.

With `Cc1cc(C)n(-c2nc(NC(C)C)nc(NC(C)C)n2)n1`, the growth inhibition is inactive: 5.05%.

For the molecule `CCCCOc1ccc(-c2c(C#N)c(N)nc(SCC(N)=O)c2C#N)cc1`, the growth inhibition was inactive: -0.51%.

Regarding `COc1ccc(CCNC(=O)c2cc3sc(Cl)cc3n2C)cc1OC`, the growth inhibition is inactive: 1.06%.

As to `CCOC(=O)c1cc2sccc2n1CC(=O)N1CCCc2ccccc21`, the growth inhibition is inactive: -1.36%.

`COc1ccc(C(C)(C)C)cc1NC(=O)Nc1ccc2c(c1)OCO2`: the growth inhibition was inactive: 9.23%.

As for `O=C(CSc1nnc(Cc2cccs2)n1Cc1ccco1)Nc1ccc(Br)cc1`, the growth inhibition was inactive: 8.53%.

For `CCOC(=O)C1CN(c2cc3c(cc2F)c(=O)c(C(=O)O)cn3CC)OC1C(=O)OCC` (configuration not stated), the growth inhibition is inactive: 3.92%.

For `Cc1cccc(N(C)C(=O)c2cc3cc4ccc(C)cc4nc3o2)c1`, the growth inhibition is inactive: -7.38%.

For the molecule `O=C(NCc1ccco1)c1ccc(S(=O)(=O)N2CCCc3ccccc32)cc1`, the growth inhibition is inactive: -13.8%.

For `Cc1csc(NC(=O)CSc2ncnc3c2cnn3-c2ccccc2Cl)n1`, the growth inhibition was inactive: 12.5%.

For `COc1cccc(NC(=O)N2CCN(c3cccc(C)c3C)CC2)c1`, the growth inhibition was inactive: -4.92%.

As for `Oc1ccccc1-c1nc(NCC2CCCO2)c2ccccc2n1` (configuration not stated), the growth inhibition was inactive: 5.18%.

Take `COc1cc(NS(=O)(=O)c2ccc(Br)cc2)c(OC)cc1NC(=O)c1ccco1`: the growth inhibition is inactive: -12%.

With `O=C(COc1ccc(Cl)cc1)Nc1nnc(-c2ccc3c(c2)CCCC3)o1`, the growth inhibition was inactive: -13.5%.

Consider `CCCCCc1c(C)nc(Nc2ccccc2)[nH]c1=O`, for which the growth inhibition was inactive: 1.06%.

Regarding `O=c1cc(O)c2c(=O)n3c4c(cccc4c2o1)CCC3`, the growth inhibition is inactive: 0.39%.

With `Clc1ccc(Cn2ncc3c(N4CCCCC4)ncnc32)c(Cl)c1`, the growth inhibition is inactive: 0.78%.

On to `COC(=O)c1ccc(CSc2nc3ccccc3o2)cc1`, for which the growth inhibition was inactive: 10.6%.

On to `O=C1c2[nH]nc(-c3ccccc3O)c2C(c2cccc(Cl)c2)N1CC1CCCO1` (configuration not stated), for which the growth inhibition was inactive: 3.79%.

Consider `Cc1noc(C)c1C(=O)Nc1sc(C)c(-c2ccccc2)c1C#N`, for which the growth inhibition was inactive: 8.14%.

Turning to `CCCCC(=O)c1c(O)c2ccccc2oc1=O`, the growth inhibition is inactive: -1.58%.

With `Cc1ccc(C(c2nnnn2CCc2ccccc2)N2CCSCC2)cc1` (configuration not stated), the growth inhibition is inactive: -2.36%.

Take `CCc1nc2sc3ccccc3c(=O)c2c(=O)n1Cc1ccco1`: the growth inhibition is inactive: -1.58%.

`O=C(Nc1cccc(S(=O)(=O)c2cccc(NC(=O)C3CC3)c2)c1)C1CC1`: the growth inhibition is inactive: 8.8%.
